Patent US20060104978A1, “Methods and compositions for PDGF-C activation and inhibition” (LUDWIG INSTITUTE FOR CANCER RESEARCH, priority 2003, published 2006)
These are yes or no findings as the source states them, for the method shown. Binding seen in cells or lysates may run through a third protein. Some results given as binding are weak or reduced against the parent protein; the word gives no strength.

The chains behind the UniProt entries cited, without tags or fusion partners. Where a name states a change or a piece, a line headed by the entry shows the natural chain unless it says otherwise. A line that says so, or that is headed by a name, gives the form on record, which may keep a tag or linker. Residues count along the entry.
recombinant His6-tagged core domain of PDGF-CC (Q9NRA1, form named): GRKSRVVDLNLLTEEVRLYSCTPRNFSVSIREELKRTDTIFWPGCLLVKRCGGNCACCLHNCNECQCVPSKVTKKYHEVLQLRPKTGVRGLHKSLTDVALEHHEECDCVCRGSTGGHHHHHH
recombinant 'free' CUB domain of human PDGF-C (amino-acid residues 23-163, C-terminal His6 tag) (Q9NRA1, form named): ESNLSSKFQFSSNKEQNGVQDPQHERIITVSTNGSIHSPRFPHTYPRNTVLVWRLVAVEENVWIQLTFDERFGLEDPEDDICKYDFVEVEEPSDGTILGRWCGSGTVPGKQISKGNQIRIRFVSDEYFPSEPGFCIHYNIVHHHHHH
recombinant His6-tagged latent (full-length) human PDGF-CC (Q9NRA1, form named): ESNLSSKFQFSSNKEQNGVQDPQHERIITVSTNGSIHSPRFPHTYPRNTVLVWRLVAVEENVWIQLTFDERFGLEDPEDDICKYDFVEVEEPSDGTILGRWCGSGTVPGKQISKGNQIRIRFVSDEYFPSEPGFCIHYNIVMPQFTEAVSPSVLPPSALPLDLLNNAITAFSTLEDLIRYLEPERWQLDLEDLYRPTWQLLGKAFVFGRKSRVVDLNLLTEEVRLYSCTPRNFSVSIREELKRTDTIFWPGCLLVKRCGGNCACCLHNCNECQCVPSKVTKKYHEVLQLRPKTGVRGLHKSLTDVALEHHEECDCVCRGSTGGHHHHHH
UniProt P00750, residues 36-562: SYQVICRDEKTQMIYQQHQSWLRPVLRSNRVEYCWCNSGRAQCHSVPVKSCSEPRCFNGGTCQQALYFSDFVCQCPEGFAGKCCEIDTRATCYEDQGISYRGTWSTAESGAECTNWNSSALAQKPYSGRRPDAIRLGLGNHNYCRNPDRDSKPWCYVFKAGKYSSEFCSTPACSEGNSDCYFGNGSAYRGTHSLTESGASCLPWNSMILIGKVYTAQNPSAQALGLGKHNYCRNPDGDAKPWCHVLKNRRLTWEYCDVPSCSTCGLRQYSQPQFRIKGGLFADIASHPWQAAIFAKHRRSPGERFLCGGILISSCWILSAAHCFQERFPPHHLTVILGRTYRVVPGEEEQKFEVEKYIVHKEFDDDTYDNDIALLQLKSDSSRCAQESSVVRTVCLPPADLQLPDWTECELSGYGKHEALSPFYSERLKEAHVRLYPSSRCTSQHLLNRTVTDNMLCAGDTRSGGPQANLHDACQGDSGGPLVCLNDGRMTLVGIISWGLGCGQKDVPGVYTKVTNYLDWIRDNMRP

Assays:
[1] = target: recombinant His6-tagged core domain of PDGF-CC (human) (UniProt Q9NRA1); assay: Ni-NTA pull-down with His6-tagged protein on beads, imidazole elution, immunoblot
[2] = target: recombinant 'free' CUB domain of human PDGF-C (amino-acid residues 23-163, C-terminal His6 tag) (human) (UniProt Q9NRA1); assay: as above
[3] = target: recombinant His6-tagged latent (full-length) human PDGF-CC (human) (UniProt Q9NRA1); assay: as above
[4] = target: recombinant His6-tagged core domain of PDGF-CC (human) (UniProt Q9NRA1); assay: Ni-NTA pull-down, elution with 400 mM imidazole, immunoblot (FIG. 5B)
[5] = target: recombinant 'free' CUB domain of human PDGF-C (amino-acid residues 23-163, C-terminal His6 tag) (human) (UniProt Q9NRA1); assay: as above
[6] = target: recombinant His6-tagged latent (full-length) human PDGF-CC (human) (UniProt Q9NRA1); assay: as above

Measured: binding

tPA purified from human melanoma cells (T7776, Sigma) (from UniProt P00750 36-562) (enzyme)
binds: all assays above
